Data source: PubChem BioAssay AID1259254 (NCATS, 2017)

- Assay: 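Finding genes that stop cells copying their DNA twice in one cycle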 (primary screen)
- System: human HCT116 colorectal cancer cells
- Reagent: single siRNA against human genes
- Time to read-out: 3 days
- Measurement: 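Imaged Hoechst DNA stain sorts each cell into a cycle phase by DNA amount; per plate, G2 fraction set to 0% for non-targeting and 100% for GMNN siRNA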
- Scale: G2 robust z-score: higher = more G2 cells, more excess DNA replication
- Call rule: 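Active siRNAs have a G2 robust z of 5 or more median absolute deviations over the median, which in these data means about 38% or higher of GMNN control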
The whole screen tested about 59,000 reagents; this is a part drawn at random. In the full data, about 1,550 (2.6%) are marked active. 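G2 share is only a proxy for re-replication; each gene was hit by three separate siRNAs, and active genes were retested.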 Entries without a mark were called inactive. Reagents against one gene are numbered here. Further read-outs or replicates are left out here. The record does not give: the amount of reagent.

gene symbol,reagent no.,G2 robust z-score
SEH1L (SEH1 like nucleoporin),1,-0.599
SEH1L (SEH1 like nucleoporin),2,-0.572
SEH1L (SEH1 like nucleoporin),3,1.65
CD46 (CD46 molecule),1,-0.433
CD46 (CD46 molecule),2,-0.761
CD46 (CD46 molecule),3,0.723
SLC26A9,1,7.95 (active)
SLC26A9,2,-0.211
SLC26A9,3,-0.919
AQP10 (aquaporin 10),1,-0.829
AQP10 (aquaporin 10),2,1.04
AQP10 (aquaporin 10),3,-0.942
DMPK (DM1 protein kinase),1,-0.601
DMPK (DM1 protein kinase),2,2.85
DMPK (DM1 protein kinase),3,-1.76
ZNF789 (zinc finger protein 789),1,3.72
ZNF789 (zinc finger protein 789),2,2.02
ZNF789 (zinc finger protein 789),3,-1.07

Quoted from above (4 entries):
gene symbol,reagent no.,G2 robust z-score
DMPK (DM1 protein kinase),3,-1.76
ZNF789 (zinc finger protein 789),1,3.72
ZNF789 (zinc finger protein 789),2,2.02
ZNF789 (zinc finger protein 789),3,-1.07

The results go on:
gene symbol,reagent no.,G2 robust z-score
CIAO2B (cytosolic iron-sulfur assembly component 2B),1,-0.42
CIAO2B (cytosolic iron-sulfur assembly component 2B),2,-0.919
CIAO2B (cytosolic iron-sulfur assembly component 2B),3,-0.863
RPL13 (ribosomal protein L13),1,3.73
RPL13 (ribosomal protein L13),2,1.42
RPL13 (ribosomal protein L13),3,1.98
"MUC7 (mucin 7, secreted)",1,0.962
"MUC7 (mucin 7, secreted)",2,0.306
"MUC7 (mucin 7, secreted)",3,-0.783
NRXN1-DT (NRXN1 divergent transcript),1,0.482
NRXN1-DT (NRXN1 divergent transcript),2,0.673
NRXN1-DT (NRXN1 divergent transcript),3,-0.598
